Measurements published in PMC6117453.
Results are given in words; binding and its absence hold for the method and conditions named. Binding seen in cells or lysates may run through a third protein. Some binding calls cover weakened binding; strength is not graded here.

The chains behind the UniProt entries cited, without tags or fusion partners. Where a name states a change or a piece, a line headed by the entry shows the natural chain unless it says otherwise.
UniProt P50462: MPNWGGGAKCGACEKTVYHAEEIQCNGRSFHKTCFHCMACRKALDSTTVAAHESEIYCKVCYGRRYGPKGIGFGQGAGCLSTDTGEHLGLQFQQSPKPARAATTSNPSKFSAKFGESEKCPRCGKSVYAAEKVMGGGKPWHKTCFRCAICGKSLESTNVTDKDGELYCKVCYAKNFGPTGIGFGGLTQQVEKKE
UniProt Q9JLV1: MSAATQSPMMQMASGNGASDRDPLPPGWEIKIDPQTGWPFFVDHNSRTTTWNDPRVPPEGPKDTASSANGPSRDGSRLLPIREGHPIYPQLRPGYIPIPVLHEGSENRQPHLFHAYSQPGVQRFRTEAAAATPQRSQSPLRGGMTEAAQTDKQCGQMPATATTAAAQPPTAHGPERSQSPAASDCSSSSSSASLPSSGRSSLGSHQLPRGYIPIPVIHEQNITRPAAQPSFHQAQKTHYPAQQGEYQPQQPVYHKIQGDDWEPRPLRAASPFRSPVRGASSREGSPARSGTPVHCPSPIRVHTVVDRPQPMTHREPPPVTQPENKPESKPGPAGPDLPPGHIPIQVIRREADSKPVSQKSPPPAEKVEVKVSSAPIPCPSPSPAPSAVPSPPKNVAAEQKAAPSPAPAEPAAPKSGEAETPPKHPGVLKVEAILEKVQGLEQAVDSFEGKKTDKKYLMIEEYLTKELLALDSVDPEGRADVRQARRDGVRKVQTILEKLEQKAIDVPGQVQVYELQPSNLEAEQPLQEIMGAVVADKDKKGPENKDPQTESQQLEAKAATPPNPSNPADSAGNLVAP

Molecular target: Muscle LIM Protein (MLP) C58G (mouse) (UniProt P50462)
Test: co-IP; MLP C58G precipitated with anti-MLP 79D2 antibody from Csrp3 KI/KI heart lysate (lysate as in Fig. 6B: mice treated in vivo with MG-262); isotype antibody as control; blotted for Bag3; endogenous proteins

- binding: binds
Substance: BCL-2 associated athanogene3 (Bag3) (from UniProt Q9JLV1 1-577)
